The results are deposited in PubChem (AID504749; NCATS, 2011).

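A panel of P. falciparum strains inside erythrocytes is exposed to compounds for three days, then a DNA-binding dye reports the amount of parasite DNA. Each compound was titrated across a series from about 0.000037 to 29 µM. The number is the fitted AC50, the concentration giving a half-maximal change in signal; a lower value means higher potency, whether the curve shows a decrease or an increase. Calls follow the curve class and fit quality: every row here is inconclusive, covering signal-raising curves and weak, poorly fitted, partial or highest-dose-only inhibition curves.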

Values are in µM. Every entry below has the call inconclusive. Only part of the assay is shown, chiefly results filed as inconclusive. A potency from a partial, single-point or poor curve is only a rough figure. Some entries filed as inconclusive have a full curve. The first word of each remark tells which way the curve ran; it can be opposite to the aim of the assay.

| # | Compound | tested on / at | potency (µM) | curve as filed |
|---|---|---|---|---|
| 1 | `COc1cc([C@@H]2c3cc4c(cc3[C@H](O)[C@H]3COC(=O)[C@H]23)OCO4)cc(OC)c1OC` | CP266 | 15.1 | inhibitor, single point |
| 2 | `COc1cc([C@@H]2c3cc4c(cc3[C@H](O)[C@H]3COC(=O)[C@H]23)OCO4)cc(OC)c1OC` | CP291 | 16.94 | inhibitor, single point |
| 3 | `COc1cc([C@@H]2c3cc4c(cc3[C@H](O)[C@H]3COC(=O)[C@H]23)OCO4)cc(OC)c1OC` | C2A | 10 | inhibitor, single point |
| 4 | `COc1cc([C@@H]2c3cc4c(cc3[C@H](O)[C@H]3COC(=O)[C@H]23)OCO4)cc(OC)c1OC` | CP315 | 19.01 | inhibitor, single point |
| 5 | `COc1cc([C@@H]2c3cc4c(cc3[C@H](O)[C@H]3COC(=O)[C@H]23)OCO4)cc(OC)c1OC` | CP201 | 19.01 | inhibitor, single point |
| 6 | `CC1(C)O[C@@H]2C[C@H]3[C@@H]4CCC5=CC(=O)C=C[C@]5(C)[C@H]4C(O)C[C@]3(C)[C@]2(C(=O)CO)O1` (stereo partly drawn) | ICS | 4.467 | inhibitor, partial curve |
| 7 | `CC1(C)O[C@@H]2C[C@H]3[C@@H]4CCC5=CC(=O)C=C[C@]5(C)[C@H]4C(O)C[C@]3(C)[C@]2(C(=O)CO)O1` (stereo partly drawn) | CP237 | 12.59 | inhibitor, partial curve |
| 8 | `CC1(C)O[C@@H]2C[C@H]3[C@@H]4CCC5=CC(=O)C=C[C@]5(C)[C@H]4C(O)C[C@]3(C)[C@]2(C(=O)CO)O1` (stereo partly drawn) | ECU | 0.02 | inhibitor, full curve, poor fit |
| 9 | `CC1(C)O[C@@H]2C[C@H]3[C@@H]4CCC5=CC(=O)C=C[C@]5(C)[C@H]4C(O)C[C@]3(C)[C@]2(C(=O)CO)O1` (stereo partly drawn) | 7G8 | 12.59 | inhibitor, partial curve, poor fit |
| 10 | `CC1(C)O[C@@H]2C[C@H]3[C@@H]4CCC5=CC(=O)C=C[C@]5(C)[C@H]4C(O)C[C@]3(C)[C@]2(C(=O)CO)O1` (stereo partly drawn) | TAB165 | 12.59 | inhibitor, single point |
| 11 | `CC1(C)O[C@@H]2C[C@H]3[C@@H]4CCC5=CC(=O)C=C[C@]5(C)[C@H]4C(O)C[C@]3(C)[C@]2(C(=O)CO)O1` (stereo partly drawn) | SC27B | 19.95 | inhibitor, single point |
| 12 | `CC1(C)O[C@@H]2C[C@H]3[C@@H]4CCC5=CC(=O)C=C[C@]5(C)[C@H]4C(O)C[C@]3(C)[C@]2(C(=O)CO)O1` (stereo partly drawn) | P93_24 | 17.78 | inhibitor, single point |
| 13 | `CC1(C)O[C@@H]2C[C@H]3[C@@H]4CCC5=CC(=O)C=C[C@]5(C)[C@H]4C(O)C[C@]3(C)[C@]2(C(=O)CO)O1` (stereo partly drawn) | AA1029 | 11.22 | inhibitor, partial curve |
| 14 | `CC1(C)O[C@@H]2C[C@H]3[C@@H]4CCC5=CC(=O)C=C[C@]5(C)[C@H]4C(O)C[C@]3(C)[C@]2(C(=O)CO)O1` (stereo partly drawn) | AS120 | 2.512 | inhibitor, full curve |
| 15 | `CC1(C)O[C@@H]2C[C@H]3[C@@H]4CCC5=CC(=O)C=C[C@]5(C)[C@H]4C(O)C[C@]3(C)[C@]2(C(=O)CO)O1` (stereo partly drawn) | CP315 | 0.012 | inhibitor, full curve, poor fit |
| 16 | `CC1(C)O[C@@H]2C[C@H]3[C@@H]4CCC5=CC(=O)C=C[C@]5(C)[C@H]4C(O)C[C@]3(C)[C@]2(C(=O)CO)O1` (stereo partly drawn) | DIV17 | 19.01 | inhibitor, single point |
| 17 | `CC1(C)O[C@@H]2C[C@H]3[C@@H]4CCC5=CC(=O)C=C[C@]5(C)[C@H]4C(O)C[C@]3(C)[C@]2(C(=O)CO)O1` (stereo partly drawn) | GB4 | 0.0048 | activator, full curve |
| 18 | `CN(C)CCCN1c2ccccc2Sc2ccccc21` | CP201 | 2.031 | inhibitor, partial curve, poor fit |
| 19 | `CN(C)CCCN1c2ccccc2Sc2ccccc21` | P94_40 | 1.413 | inhibitor, partial curve |
| 20 | `CN(C)CCCN1c2ccccc2Sc2ccccc21` | N140 | 3.981 | inhibitor, partial curve |
| 21 | `CN(C)CCCN1c2ccccc2Sc2ccccc21` | CP305 | 1.614 | inhibitor, partial curve |
| 22 | `CN(C)CCCN1c2ccccc2Sc2ccccc21` | CP238 | 3.162 | inhibitor, partial curve |
| 23 | `CN(C)CCCN1c2ccccc2Sc2ccccc21` | TAB165 | 3.548 | inhibitor, partial curve |
| 24 | `CN(C)CCCN1c2ccccc2Sc2ccccc21` | CP217 | 3.162 | inhibitor, partial curve |
| 25 | `CN(C)CCCN1c2ccccc2Sc2ccccc21` | CP269 | 2.869 | inhibitor, partial curve |
| 26 | `CN(C)CCCN1c2ccccc2Sc2ccccc21` | CP268 | 3.22 | inhibitor, partial curve |
| 27 | `CN(C)CCCN1c2ccccc2Sc2ccccc21` | GB4 | 0.5725 | inhibitor, full curve |
| 28 | `CN(C)CCCN1c2ccccc2Sc2ccccc21` | ICS | 3.548 | inhibitor, partial curve |
| 29 | `CN(C)CCCN1c2ccccc2Sc2ccccc21` | ATS189 | 2.239 | inhibitor, partial curve |
| 30 | `CN(C)CCCN1c2ccccc2Sc2ccccc21` | CP194 | 5.103 | inhibitor, partial curve |
| 31 | `CN(C)CCCN1c2ccccc2Sc2ccccc21` | DIV30 | 2.558 | inhibitor, partial curve |
| 32 | `CN(C)CCCN1c2ccccc2Sc2ccccc21` | CP260 | 2.512 | inhibitor, partial curve |
| 33 | `CN(C)CCCN1c2ccccc2Sc2ccccc21` | P93_24 | 1.585 | inhibitor, partial curve |
| 34 | `CN(C)CCCN1c2ccccc2Sc2ccccc21` | TAB109 | 0.7943 | inhibitor, partial curve |
| 35 | `CN(C)CCCN1c2ccccc2Sc2ccccc21` | ATS95 | 3.981 | inhibitor, partial curve |
| 36 | `CN(C)CCCN1c2ccccc2Sc2ccccc21` | SC27B | 1.413 | inhibitor, partial curve |
| 37 | `CN(C)CCCN1c2ccccc2Sc2ccccc21` | PAD | 3.548 | inhibitor, partial curve, poor fit |
| 38 | `CC/C(=C(/CC)c1ccc(O)cc1)c1ccc(O)cc1` | TAB113 | 12.59 | inhibitor, single point |
| 39 | `CC/C(=C(/CC)c1ccc(O)cc1)c1ccc(O)cc1` | SC27B | 11.22 | inhibitor, single point |
| 40 | `CC/C(=C(/CC)c1ccc(O)cc1)c1ccc(O)cc1` | CP260 | 12.59 | inhibitor, single point |
| 41 | `CC/C(=C(/CC)c1ccc(O)cc1)c1ccc(O)cc1` | ICS | 10 | inhibitor, single point |
| 42 | `CC/C(=C(/CC)c1ccc(O)cc1)c1ccc(O)cc1` | GB4 | 16.94 | inhibitor, partial curve, poor fit |
| 43 | `CC/C(=C(/CC)c1ccc(O)cc1)c1ccc(O)cc1` | CP262 | 13.46 | inhibitor, single point |
| 44 | `CC/C(=C(/CC)c1ccc(O)cc1)c1ccc(O)cc1` | P94_40 | 11.22 | inhibitor, single point |
| 45 | `CC/C(=C(/CC)c1ccc(O)cc1)c1ccc(O)cc1` | CP335 | 16.94 | inhibitor, single point |
| 46 | `CC/C(=C(/CC)c1ccc(O)cc1)c1ccc(O)cc1` | parasite line A | 12.59 | inhibitor, single point |
| 47 | `CC/C(=C(/CC)c1ccc(O)cc1)c1ccc(O)cc1` | DIV14 | 19.01 | inhibitor, single point |
| 48 | `CC/C(=C(/CC)c1ccc(O)cc1)c1ccc(O)cc1` | 7G8 | 12.59 | inhibitor, partial curve, poor fit |

The first 3 entries again:

Compound	tested on / at	potency (µM)	curve as filed
COc1cc([C@@H]2c3cc4c(cc3[C@H](O)[C@H]3COC(=O)[C@H]23)OCO4)cc(OC)c1OC	CP266	15.1	inhibitor, single point
COc1cc([C@@H]2c3cc4c(cc3[C@H](O)[C@H]3COC(=O)[C@H]23)OCO4)cc(OC)c1OC	CP291	16.94	inhibitor, single point
COc1cc([C@@H]2c3cc4c(cc3[C@H](O)[C@H]3COC(=O)[C@H]23)OCO4)cc(OC)c1OC	C2A	10	inhibitor, single point